How the values were obtained:
[1] = test system: MES-SA/DX5 (multidrug resistant carcinoma subline of MES-SA); assay: SRB cytotoxicity test, MES-SA/DX5; assay type: cell-based, human; conditions: for Ratio* (MES-SA/DX5 value divided by MES-SA value): Table 4
Description: To determine the cytotoxicity against human tumor cell line of the test samples prepared in Examples, following sulforhodamin B (SRB) bioassy test was performed according to the method disclosed in the literature (Skehan, P., et al., J. Natl. Cancer Inst., 82, 1990, 1107-1112).
Various human tumor cell lines, i.e., A-549 (human adenocarcinoma of lung, NCI), SK-OV-3 (human ovarian tumor, NCI), SK-MEL-2 (human malignant melanoma, NCI), HCT15 (human colon adenocarcinoma, NCI), MES-SA (human uterine carcinoma, NCI) and MES-SA/DX5 (multidrug resistant carcinoma subline of MES-SA, NCI) were used in the test.
The subcultured cell lines were detached from the surface of wall using by trypsin-EDTA solution and adjusted to various concentration of cell lines, i.e., 5×10^3 cells/well (A-549, HCT15), 1×10^4 cells/well (SK-MEL-2), 5×10^3 cells/well (SK-OV-3) in 96-well flat bottom microplate. The inoculated cell lines were incubated in CO2 incubator (MCO-20AIC, SANYO Electric Co., LTd.) to be attached on the bottom of incubator and the culture media was removed with aspirator. 6 logarithmic concentrations of the diluted test samples were added to each well containing cell line at 100 μl/well in a three fold dilution manner and the cell was incubated for 48 hours. The culture media in each well was removed and 100μ of 10% trichloroacetic acid was added thereto to be left alone at 4° C. for 1 hour and to fix the cells to the bottom of the plates. […] The cell plates were shaked with titer plate shaker (KOMA Orbital Shaker KE011, KOMABIOTech) for 10 mins to exude the staining solution and to determine the absorbance at 520 nm using by microplate spectrophotometer (Sunrise, TECAN).

[2] = test system: HCT15/CL02; assay: SRB cytotoxicity test, HCT15/CL02; assay type: cell-based, human; conditions: Table 4
Description: To determine the cytotoxicity against human tumor cell line of the test samples prepared in Examples, following sulforhodamin B (SRB) bioassy test was performed according to the method disclosed in the literature (Skehan, P., et al., J. Natl. […] The inoculated cell lines were incubated in CO2 incubator (MCO-20AIC, SANYO Electric Co., LTd.) to be attached on the bottom of incubator and the culture media was removed with aspirator. 6 logarithmic concentrations of the diluted test samples were added to each well containing cell line at 100 μl/well in a three fold dilution manner and the cell was incubated for 48 hours. […] The cell plates were shaked with titer plate shaker (KOMA Orbital Shaker KE011, KOMABIOTech) for 10 mins to exude the staining solution and to determine the absorbance at 520 nm using by microplate spectrophotometer (Sunrise, TECAN).

C=C1CCC2[C@](C)(C(=O)O)CCC[C@]2(C)[C@H]1CC[C@H](C)CCO (stereo partly drawn) [compound (b), (13S)-15-hydroxylabd-8(17)-en-18-oic acid]
Ratio* (MES-SA/DX5 value divided by MES-SA value) [1]: 0.60 | Ratio** (HCT15/CL02 value divided by HCT15 value) [2]: 0.64

C=C1CCC2C(C)(C(=O)O)CCCC2(C)C1CCC(C)CC(=O)O (stereo not drawn) [compound (c), ent-labd-8(17)-ene-15,18-dioic acid]
Ratio** (HCT15/CL02 value divided by HCT15 value) [2]: <0.72

C=C1CCC2[C@](C)(C(=O)O)CCC[C@]2(C)[C@H]1/C=C/C(C)=O (some centres unmarked) [compound (d), 13-oxo-15,16-dinorlabda-8(17),11E-dien-19-oic acid]
Ratio** (HCT15/CL02 value divided by HCT15 value) [2]: <0.92

C[C@@]1(C(=O)O)CCC[C@]2(C)c3ccc(O)cc3CCC12 (some centres unmarked) [compound (e), 13-hydroxy-8,11,13-podocarpatrien-18-oic acid]
Ratio* (MES-SA/DX5 value divided by MES-SA value) [1]: <0.86 | Ratio** (HCT15/CL02 value divided by HCT15 value) [2]: <0.88

CC(C)c1ccc2c(c1)[C@H](O)CC1[C@](C)(C(=O)O)CCC[C@]21C (stereo partly drawn) [compound (f), 7α-hydroxycallitirisic acid]
Ratio* (MES-SA/DX5 value divided by MES-SA value) [1]: 1.02

COc1cccc2c1C(=O)c1c(O)c3c(c(O)c1C2=O)C[C@@](O)(C(=O)CO)C[C@@H]3O[C@H]1C[C@H](N)[C@H](O)[C@H](C)O1 [doxorubicin, reference compound]
Ratio (MES-SA/DX5 value divided by MES-SA value) ([1]; Table 1): 2061 | Ratio (MES-SA/DX5 value divided by MES-SA value) ([1]; Table 2): 2061 | Ratio* (MES-SA/DX5 value divided by MES-SA value) [1]: 284.31 | Ratio** (HCT15/CL02 value divided by HCT15 value) [2]: 131.88
